Source: article doi:10.1101/2023.07.19.549485

B1: ALBA3 (protein, UniProt Q8IJX8 1-107)
chain: MASTEEVSQERSENSIQVSMTKKPTFYARIGKRMFTGNEEKNPFDEVIITGLGNATKIAIGAASIMEKEDIGQIVKVQTAYFSSDRINRRIPKITIVLKKHPDFVAN

Biological target: MD3-GFP-BirA fusion protein (P. falciparum) (UniProt O97271)
Test: proximity labelling

| Molecule | binding |
| --- | --- |
| RNF1 (RING-finger domain zinc finger protein) (from UniProt O97260) | binds |
| polyadenylate-binding protein PABP1 (from UniProt Q8I5H4) | binds |
| B1 | binds |

No constants are given. Whether binding was seen depends on the method and setting. Binding seen in cells or lysates may run through a third protein. Here binding means that the protein was enriched with, or labelled near, the bait; the list need not be complete.
